# Assay results published in the supplement of paper PMC8728848.
# The list shows a part of the results.
# B1: R2-fiber (Pseudomonas aeruginosa), Q9S576 (protein)
# chain: HHHHHHKVAKDLVVSLAYQVRTEDGVLVDESPVSAPLDYLHGHGSLISGLETALEGHEVGDKFDVAVGANDAYGQYDENLVQRVPKDVFMGVDELQVGMRFLAETDQGPVPVEITAVEDDHVVVDGNHMLAGQNLKFNVEVVAIREATEEELAHGHVHGAHDHHHDHDHDGCCGGHGHDHGHEHGGEGCCGGKGNGGCGCHENLYFQGVTAGMALAATDIPGLDASKLVSGVLAEQRLPVFARGLATAVSNSSDPNTATVPLMLTNHANGPVAGRYFYIQSMFYPDQNGNASQIATSYNATSEMYVRVSYAANPSIREWLPWQRCDIGGSFTKEADGELPGGVNLDSMVTSGWWSQSFTAQAASGANYPIVRAGLLHVYAASSNFIYQTYQAYDGESFYFRCRHSNTWFPWRRMWHGGDFNPSDYLLKSGFYWNALPGKPATFPPSAHNHDVGQLTSGILPLARGGVGSNTAAGARSTIGAGVPATASLGASGWWRDNDTGLIRQWGQVTCPADADASITFPIPFPTLCLGGYANQTSAFHPGTDASTGFRGATTTTAVIRNGYFAQAVLSWEAFGR
# Columns and labels:
# Assay in all cases: glycan array binding signal (z-score within array); higher = stronger binding
# Details in all cases: glycan notation: IUPAC condensed, linker removed
# [1] = target: Gal(b1-3)GlcNAc(b1-2)Man(a1-3)[Gal(b1-3)GlcNAc(b1-2)Man(a1-6)]Man(b1-4)GlcNAc(b1-4)GlcNAc
# Procedure, shortened: (§1)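 Negative Z-scores can be read as non-binding. The Z-score is calculated within each array and then averaged across arrays of one protein sequence at different concentrations or buffers and across linkers. Arrays, 3228 in all, were curated from the Consortium for Functional Glycomics database and kept only where the protein sequence was available.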
# [2] = target: Gal(b1-3)GlcNAc(b1-2)Man(a1-3)[Gal(b1-3)GlcNAc(b1-2)Man(a1-6)]Man(b1-4)GlcNAc(b1-4)[Fuc(a1-6)]GlcNAc
# Procedure, shortened: as §1
# [3] = target: Gal(b1-3)GlcNAc(b1-2)Man(a1-3)[GlcNAc(b1-4)][Gal(b1-3)GlcNAc(b1-2)Man(a1-6)]Man(b1-4)GlcNAc(b1-4)GlcNAc
# Procedure, shortened: as §1
# [4] = target: Gal(b1-3)GlcNAc(b1-2)[Gal(b1-3)GlcNAc(b1-6)]Man(a1-6)[Gal(b1-3)GlcNAc(b1-2)Man(a1-3)]Man(b1-4)GlcNAc(b1-4)GlcNAc
# Procedure, shortened: as §1
# [5] = target: Gal(b1-3)GlcNAc(b1-3)Gal(b1-3)GlcNAc
# Procedure, shortened: as §1
# [6] = target: Gal(b1-3)GlcNAc(b1-3)Gal(b1-4)Glc
# Procedure, shortened: as §1
# [7] = target: Gal(b1-3)GlcNAc(b1-3)Gal(b1-4)GlcNAc
# Procedure, shortened: as §1
# [8] = target: Gal(b1-3)GlcNAc(b1-3)Gal(b1-4)GlcNAc(b1-2)Man(a1-3)[Gal(b1-3)GlcNAc(b1-3)Gal(b1-4)GlcNAc(b1-2)Man(a1-6)]Man(b1-4)GlcNAc(b1-4)GlcNAc
# Procedure, shortened: as §1
# [9] = target: Gal(b1-3)GlcNAc(b1-3)Gal(b1-4)GlcNAc(b1-2)[Gal(b1-3)GlcNAc(b1-3)Gal(b1-4)GlcNAc(b1-6)]Man(a1-6)[Gal(b1-3)GlcNAc(b1-3)Gal(b1-4)GlcNAc(b1-2)Man(a1-3)]Man(b1-4)GlcNAc(b1-4)[Fuc(a1-6)]GlcNAc
# Procedure, shortened: as §1
# [10] = target: Gal(b1-3)GlcNAc(b1-3)Gal(b1-4)GlcNAc(b1-3)Gal(b1-4)GlcNAc(b1-2)[Gal(b1-3)GlcNAc(b1-3)Gal(b1-4)GlcNAc(b1-3)Gal(b1-4)GlcNAc(b1-6)]Man(a1-6)[Gal(b1-3)GlcNAc(b1-3)Gal(b1-4)GlcNAc(b1-3)Gal(b1-4)GlcNAc(b1-2)Man(a1-3)]Man(b1-4)GlcNAc(b1-4)[Fuc(a1-6)]GlcNAc
# Procedure, shortened: as §1
# [11] = target: Gal(b1-3)GlcNAc(b1-3)Gal(b1-4)GlcNAc(b1-6)[Gal(b1-3)GlcNAc(b1-3)]Gal(b1-4)Glc
# Procedure, shortened: as §1
# [12] = target: Gal(b1-3)GlcNAc(b1-3)Gal(b1-4)[Fuc(a1-3)]GlcNAc
# Procedure, shortened: as §1
# [13] = target: Gal(b1-3)GlcNAc(b1-3)Gal(b1-4)[Fuc(a1-3)]GlcNAc(b1-6)[Gal(b1-3)GlcNAc(b1-3)]Gal(b1-4)Glc
# Procedure, shortened: as §1
# [14] = target: Gal(b1-3)GlcNAc(b1-3)GalNAc
# Procedure, shortened: as §1
# [15] = target: Gal(b1-3)GlcNAc(b1-6)Gal(b1-4)GlcNAc
# Procedure, shortened: as §1
# [16] = target: Gal(b1-3)GlcNAc(b1-6)GalNAc
# Procedure, shortened: as §1
# [17] = target: Gal(b1-3)GlcNAc(b1-6)[Gal(b1-3)]GalNAc
# Procedure, shortened: as §1
# [18] = target: Gal(b1-3)GlcNAc6S
# Procedure, shortened: as §1
# [19] = target: Gal(b1-3)[Fuc(a1-4)]GlcNAc
# Procedure, shortened: as §1
# [20] = target: Gal(b1-3)[Fuc(a1-4)]GlcNAc(b1-2)Man
# Procedure, shortened: as §1
# [21] = target: Gal(b1-3)[Fuc(a1-4)]GlcNAc(b1-2)Man(a1-3)[Gal(b1-3)[Fuc(a1-4)]GlcNAc(b1-2)Man(a1-6)]Man(b1-4)GlcNAc(b1-4)[Fuc(a1-6)]GlcNAc
# Procedure, shortened: as §1
# [22] = target: Gal(b1-3)[Fuc(a1-4)]GlcNAc(b1-3)Gal(b1-3)[Fuc(a1-4)]GlcNAc
# Procedure, shortened: as §1
# [23] = target: Gal(b1-3)[Fuc(a1-4)]GlcNAc(b1-3)Gal(b1-4)[Fuc(a1-3)]GlcNAc
# Procedure, shortened: as §1
# [24] = target: Gal(b1-3)[Fuc(a1-4)]GlcNAc(b1-6)GalNAc
# Procedure, shortened: as §1
# [25] = target: Gal(b1-3)[GlcNAc(b1-6)]GalNAc
# Procedure, shortened: as §1
# [26] = target: Gal(b1-3)[Neu5Ac(a2-6)]GalNAc
# Procedure, shortened: as §1
# [27] = target: Gal(b1-3)[Neu5Ac(a2-6)]GlcNAc(b1-4)Gal(b1-4)Glc
# Procedure, shortened: as §1
# [28] = target: Gal(b1-3)[Neu5Ac(b2-6)]GalNAc
# Procedure, shortened: as §1
# [29] = target: Gal(b1-4)Gal
# Procedure, shortened: as §1
# [30] = target: Gal(b1-4)GalNAc(a1-3)[Fuc(a1-2)]Gal(b1-4)GlcNAc
# Procedure, shortened: as §1
binder,measurement,setting,value
B1,glycan array binding signal (z-score),[1],0.909
same,glycan array binding signal (z-score),[2],0.783
same,glycan array binding signal (z-score),[3],-0.395
same,glycan array binding signal (z-score),[4],-0.011
same,glycan array binding signal (z-score),[5],1.43
same,glycan array binding signal (z-score),[6],-0.113
same,glycan array binding signal (z-score),[7],-0.227
same,glycan array binding signal (z-score),[8],1.64
same,glycan array binding signal (z-score),[9],1.01
same,glycan array binding signal (z-score),[10],1.22
same,glycan array binding signal (z-score),[11],0.141
same,glycan array binding signal (z-score),[12],0.162
same,glycan array binding signal (z-score),[13],0.849
same,glycan array binding signal (z-score),[14],-0.267
same,glycan array binding signal (z-score),[15],0.467
same,glycan array binding signal (z-score),[16],-0.026
same,glycan array binding signal (z-score),[17],-0.27
same,glycan array binding signal (z-score),[18],-0.334
same,glycan array binding signal (z-score),[19],-0.653
same,glycan array binding signal (z-score),[20],-0.063
same,glycan array binding signal (z-score),[21],-0.103
same,glycan array binding signal (z-score),[22],-0.446
same,glycan array binding signal (z-score),[23],2.1
same,glycan array binding signal (z-score),[24],0.756
same,glycan array binding signal (z-score),[25],0.257
same,glycan array binding signal (z-score),[26],-0.694
same,glycan array binding signal (z-score),[27],0.133
same,glycan array binding signal (z-score),[28],-0.396
same,glycan array binding signal (z-score),[29],-0.348
same,glycan array binding signal (z-score),[30],0.096

# Another view of part of the listing above.
binder	measurement	setting	value
B1	glycan array binding signal (z-score)	[8]	1.64
same	glycan array binding signal (z-score)	[9]	1.01
same	glycan array binding signal (z-score)	[10]	1.22
same	glycan array binding signal (z-score)	[11]	0.141
same	glycan array binding signal (z-score)	[12]	0.162
same	glycan array binding signal (z-score)	[13]	0.849
same	glycan array binding signal (z-score)	[14]	-0.267
same	glycan array binding signal (z-score)	[15]	0.467
